Results published in PubChem BioAssay AID2685 (National Center for Advancing Translational Sciences (NCATS), 2010).
The other results are listed elsewhere or left out. These are further read-outs of the screen, such as a control signal, another cell line or another target. No call is given for them. Compounds called inactive in the main read-out are mostly missing here. Potencies come from curve fits of mixed quality, noted in brackets.

Experiment: qHTS Assay for Lipid Storage Modulators in Drosophila S3 Cells;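 for cell number change: cells counted by Cell Tracker Red CMTPX staining in the red channel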
Details: BODIPY lipid droplet fluorescence, 18-24 h; for cell number change: measured here: cell count max response, cells fed with added oleic acid
Summary of the method: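 Laser-scanning cytometry quantifies lipid droplet accumulation (500–530 nm total intensity; droplet/cell object ratio) in oleic acid-fed (400 uM added) Drosophila S3 cells treated with a concentration series. 20 uM Triacsin C defined 100% inhibition.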

[1] = measured here: cell number channel AC50, cells fed with added oleic acid
[2] = measured here: lipid fluorescence (Fed channel) AC50, cells fed with added oleic acid

O=C(CNC(=O)c1cccs1)NCC(=O)OCc1c(F)cccc1Cl
cell number change: 105% | AC50 [1]: 16.4 µM [rising, partial curve]

NC(=O)c1ccc(-n2nnnc2SCC(=O)c2ccc(O)c(O)c2)cc1
AC50 [1]: 0.13 µM [rising, full curve, poor fit]

O=C(OCc1nnc(-c2ccccc2)o1)c1ccc(Cl)cc1
AC50 [2]: 0.116 µM [rising, full curve, poor fit]

Cc1ccn2c(=O)nc(SCC(=O)NCc3ccco3)nc2c1
cell number change: -42.7% | AC50 [1]: 0.731 µM [falling, full curve, poor fit] | AC50 [2]: 2.31 µM [falling, partial curve]

CCC(C)[C@@H](CN)NCC1(c2ccccc2)CC1 (stereo partly drawn)
cell number change: -16.4% | AC50 [1]: 0.731 µM [falling, single point]

CCn1c(NCc2ccc(N(C)C)cc2)nc2ccccc21
AC50 [1]: 0.58 µM [rising, single point]

O=C(C[n+]1ccc(C(=O)NCCCO)cc1)c1cccc(Br)c1
cell number change: 6.22% | AC50 [2]: 0.0058 µM [falling, full curve, poor fit]

O=C(CSc1ccc(Cl)cc1)N/N=C/c1ccc([N+](=O)[O-])o1
cell number change: -40% | AC50 [1]: 29.1 µM [falling, single point]

O=C(N/N=C/c1cc(Cl)cc([N+](=O)[O-])c1O)C1CC1
cell number change: -48.3% | AC50 [1]: 5.8 µM [falling, full curve] | AC50 [2]: 18.4 µM [falling, partial curve]

Cc1ccc(NC(=O)CN2C(=O)N/C(=C/c3ccc4c(c3)OCCO4)C2=O)cc1
cell number change: 426%

O=C(c1nc2ccccc2[nH]1)c1ccccc1[N+](=O)[O-]
cell number change: 23.4% | AC50 [2]: 0.82 µM [rising, full curve, poor fit]

NS(=O)(=O)OCCCc1ccccc1
cell number change: 28.5% | AC50 [2]: 11.6 µM [rising, partial curve]

Cc1ccc(CS(=O)(=O)c2cn(CC(=O)N3CCOCC3)c3ccccc23)cc1
cell number change: -19.9%

O=C(Nc1ccccc1)c1nc[nH]c1C(=O)NCc1ccccc1
cell number change: -78.2% | AC50 [1]: 13 µM [falling, single point]

O=C(COC(=O)CCc1nc2ccccc2c(=O)[nH]1)Nc1ccc(N2CCOCC2)cc1
cell number change: -44.1% | AC50 [1]: 29.1 µM [falling, single point]

COc1ccc(N=C(N)N=C(N)N)c(OC)c1
cell number change: -3.5% | AC50 [2]: 0.231 µM [falling, full curve, poor fit]

O=C(O)c1cccnc1SCC(=O)N1CCCCCC1
cell number change: -24.7% | AC50 [2]: 20.6 µM [falling, single point]

CCOC(=O)C(C)Sc1nc2c(c(=O)[nH]c(=O)n2C)n1C/C=C(/C)Cl (stereo not drawn)
cell number change: -2.51%

CC1CC(C)CN(S(=O)(=O)c2ccc(C(=O)N3CCOCC3)cc2)C1 (stereo not drawn)
cell number change: 21.9% | AC50 [2]: 6.51 µM [rising, full curve, poor fit]

O=C(O)/C=C/C(=O)NCc1ccccc1
cell number change: 12.4% | AC50 [2]: 0.146 µM [rising, full curve, poor fit]

CCn1c(SCC(=O)NC2CCS(=O)(=O)C2)nnc1-c1ccccc1 (stereo not drawn)
cell number change: -20.6% | AC50 [1]: 0.58 µM [falling, full curve, poor fit]

N#CCc1nn(-c2ccc(Cl)cc2)c(N)c1C#N
cell number change: 11.9% | AC50 [2]: 5.8 µM [rising, full curve, poor fit]

COc1ccc(CCN(C(=O)c2cccc(F)c2)C2CC(=O)N(c3ccc(OC)cc3)C2=O)cc1 (stereo not drawn)
cell number change: 121% | AC50 [1]: 18.4 µM [rising, single point]

O=C(CNC(=O)c1ccc(Cl)cc1Cl)Nc1ccc(F)cc1
cell number change: 4.42% | AC50 [2]: 2.31 µM [rising, partial curve]

CN(C)c1ccc(C(=O)OCc2ccccc2)cc1
cell number change: 57.1% | AC50 [1]: 3.66 µM [rising, full curve] | AC50 [2]: 13 µM [rising, partial curve]

COc1ccc(C(=O)Oc2cc(C)c(CN3CCOCC3)cc2C)cc1OC
cell number change: 9.46% | AC50 [2]: 0.58 µM [falling, single point]

O=C(O)C1CCCCC1C(=O)Nc1ccc(F)cc1F (stereo not drawn)
cell number change: 33% | AC50 [1]: 29.1 µM [rising, single point] | AC50 [2]: 29.1 µM [rising, single point]

O=C(NNS(=O)(=O)c1ccccc1)c1cc2cc3ccccc3nc2s1
cell number change: 13.2% | AC50 [2]: 29.1 µM [rising, single point]

Cn1c(=O)n(CC(=O)NCc2cccnc2)c2ccccc21
cell number change: -16.4% | AC50 [1]: 0.092 µM [falling, full curve, poor fit]

COc1ccc(-n2cnc3cc(C(=O)NCCN4CCOCC4)ccc32)cc1
cell number change: -10.9% | AC50 [2]: 1.64 µM [falling, single point]
